PubChem BioAssay AID1508600 (Functional Genomics Laboratory (NCATS/FGL), 2020)
In all, about 53,000 sequences went through this assay and about 3,700 (7%) were called active.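 How the source made its calls: active means gene knockdowns whose robust z-score for IL-1 alpha signal is at least 2 or at most -2, so actives lie on both sides; inactive means the rest.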 The list shows a part of the results.

Assay: Components of the Cytosolic LPS Sensing Pathway: Gene Identification via Genome-wide siRNA Screen;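 further: robust z of the log signal after scaling to non-targeting control siRNA wells of the plate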
Conditions: RAW264.7 macrophages, IL-1a HTRF, actives lie on both sides, screened at 100 nM (by protocol), cells primed 5 h with Pam3CSK4 first
Outline: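 Knockdown: 100 nM siRNA, 48h, RAW264.7. Stimulation: Pam3CSK4 5 h, then LipidA via TransIT-TKO 24 h. Output: supernatant IL-1a HTRF, negative-control-normalized, log robust z-score; viability by CellTiter-Glo.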

z-score, inactive:
CCAUAUAAGGCACAGUUUGTT against Ergic1 1.02
GGUAGCAAAUCCAACAAGATT against Slamf1 0.226
GGUUCUUCAUACAAAUUACTT against S1pr5 0.83
CCUUUUCACAGAGAGCUGCTT against Tex264 -1.57
CCCGGCCACUGUUAUGAGATT against Wdr83os 0.798
CUACAGUGGCAAUAAUAUUTT against Rpl30 0.425
GGAAGACAGUAGGAAGAAATT against Eif2s2 0.721
GGCAUAUCAUUUGUAGGAUTT against Olfr73 -0.0852
GGCUGUCUCCGAACACUAUTT against Josd1 -0.594
GGUCUUAAUUCUGAAGGACTT against Chn1 -0.207
GGCUUGAUUGCAUCUUUAUTT against Ebpl -0.765
GGUUCAUCUCAUCUCAAGUTT against Mfsd13a -1.47
GCAACUACCCUCUAAAGUCTT against Man1b1 0.32
GCCAGUGCACUCCUCUUUUTT against Apip -0.177
CCGGCAGACCUGUGACAUUTT against Rgs14 0.0166
GUGAGACCAAGUUACAGGATT against Olfr1504 1.5
GGCUGGUACUCCAUUUUAGTT against Neil2 0.0451
GGCUUUAGCUAGUGCUAGGTT against Marveld1 -0.395
GCUCCCUAACAGUUGUCUATT against Mtmr14 -0.467
GCGAGUUUAAAAGCACACUTT against Trmt44 0.376
GGCAUCAAAAAGCAGACAATT against Erich2 -1.98
GACCAACCCUCACUAAGCUTT against Tcstv3 -0.364
CGUACAUGUCACCUGCUAATT against Acot13 1.69
CCCUUGGUUAUGGAGAAAGTT against Mcoln2 -0.0392
GGCAGCUGCUGACUUGAUGTT against Gng2 0.133
GGGUAGGAUUGAAAAGUUUTT against Trh -1.24
CCCUUGCUUGUCGGAAUCUTT against Chchd7 1.11
GCAACCUGCAGGCAGUAACTT against Nolc1 0.207
GGCCCAUAAUUAAAUGUUUTT against Stac2 0.438

A run of entries from the list above:
z-score, inactive:
CCUUUUCACAGAGAGCUGCTT against Tex264 -1.57
CCCGGCCACUGUUAUGAGATT against Wdr83os 0.798
CUACAGUGGCAAUAAUAUUTT against Rpl30 0.425
GGAAGACAGUAGGAAGAAATT against Eif2s2 0.721
GGCAUAUCAUUUGUAGGAUTT against Olfr73 -0.0852
GGCUGUCUCCGAACACUAUTT against Josd1 -0.594
GGUCUUAAUUCUGAAGGACTT against Chn1 -0.207
